We go through 23 molecules from the supplement of paper PMC7024190.

Where a name gives a salt, the structure may show the parent alone. This is one part of the list. Single values are uncertain here, since repeats match poorly.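 A first-round screen of about ten thousand compounds sought those raising reporter output, using human embryonic kidney cells briefly transfected with a plasmid carrying a Renilla luciferase gene driven by the HSV-TK promoter.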

The subject of the test is HEK 293FT. In words: log relative Renilla luciferase luminescence (reporter expression vs reference, reference not stated) (log (base not stated)); higher = higher recombinant reporter expression. The conditions noted are these: 10 µM; time after transfection 48 h.
For the molecule `Cc1nnc(-c2ccc3occ(-c4ccc([S+](C)[O-])cc4)c3c2)o1` (stereo not drawn), the log was 0.029.

As for `O=C(NCCNCC(O)COc1ccc(O)cc1)N1CCOCC1` (stereo not drawn) [Xamoterol hemifumarate], the log worked out at 0.026.

On to `CC1=C(/C=C/C(=C/C=C/C(C)=C/C(=O)O)c2ccc(C)cc2)C(C)(C)CCC1`, for which the log is -0.04.

Turning to `CC(C)c1onc(-c2c(Cl)cccc2Cl)c1COc1ccc(/C=C/c2cccc(C(=O)O)c2)c(Cl)c1`, the log came out at 0.0175.

Consider `CN(Cc1ccccc1)C(=O)[C@H](Cc1ccc2ccccc2c1)NC(=O)[C@@H]1C[C@@H](O)CN1C(=O)c1cn(C)c2ccccc12`, for which the log is -0.0455.

As for `Clc1ccc2nsnc2c1NC1=NCCN1` [Tizanidine hydrochloride], the log was -0.118.

On to `CC(C)CC(NC(=O)OCC1c2ccccc2-c2ccccc21)C(=O)O` (stereo not drawn), for which the log came out at 0.0889.

For the molecule `CCCCCCCC/C=C\CCCCCCCC(=O)NCCO` [Oleylethanolamide], the log is 0.137.

On to `CC(C)Oc1cccc(-n2c(CCc3c[nH]c4ccc(Br)cc34)nc3ccccc3c2=O)c1`, for which the log turned out to be 0.0544.

Consider `CCCCCCN(CCCCCC)C(=O)Cc1c(-c2ccc(Cl)cc2)[nH]c2ccc(Cl)cc12`, for which the log is -0.129.

With `CCCCCCCCCCCCCCCC(=O)C(F)(F)F`, the log was -0.051.

As to `CCC(C)N(C)C(=O)c1cc2ccccc2c(-c2ccccc2Cl)n1` (stereo not drawn), the log was found to be 0.0674.

For `CCCCCCCCCCCCCCCC(=O)NCCO` [Palmitoylethanolamide], the log was -0.0983.

Turning to `Cc1cc(C)c(N(Cc2ccccc2)S(=O)(=O)c2ccc(OCCNC(=O)c3cc4ccccc4o3)cc2)c(C(=O)NO)c1`, the log was -0.153.

As to `CN1C(=O)C(Cc2c[nH]c3ccccc23)NC1=S` (stereo not drawn) [Necrostatin-1], the log is -0.0154.

As for `CCOC(=O)N1CCC(=C2c3ccc(Cl)cc3CCc3cccnc32)CC1` [Loratidine], the log was 0.142.

`CC(=O)N1CCN(C)CC1` [1-Acetyl-4-methylpiperazine hydrochloride]: the log is 0.00213.

For `CC(=O)O[C@@H]1C[C@H]2C(C)(C)C(=O)C=C[C@]2(C)[C@H]2CC[C@@]3(C)[C@H](c4ccoc4)OC(=O)[C@H]4O[C@]43[C@@]21C` [Gedunin], the log is -1.52.

`O=C(O)c1ccc(-c2c[nH]c3ncc(-c4ccccc4)cc23)cc1C1CCCC1`: the log is 0.0105.

As to `O=Nc1c(-c2c(O)[nH]c3ccccc23)[nH]c2ccccc12` [Indirubin-3'-oxime], the log was 0.12.

With `CCCCC1CCC(c2nc(-c3ccncc3)no2)CC1` (stereo not drawn), the log came to 0.0616.

As to `CC1C(=O)OC2C(O)C34C5CC(C(C)(C)C)C36C(OC(=O)C6O)OC4(C(=O)O5)C12O` (stereo not drawn) [Ginkgolide B], the log stood at 0.00628.

Regarding `CCCn1c(=O)c(C)cn2nc(N)nc12`, the log came out at 0.0933.
